Reference: PubChem BioAssay AID2685 (National Center for Advancing Translational Sciences (NCATS), 2010)
Some of the results follow. The main result of the screen is listed elsewhere. These columns were measured beside it and carry no call. Compounds called inactive in the main read-out are mostly missing here. Words in brackets tell the shape of the fitted curve; partial curves, single points and poor fits give uncertain potencies.

Assay: qHTS Assay for Lipid Storage Modulators in Drosophila S3 Cells;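 on cell number change: cells counted by Cell Tracker Red CMTPX staining in the red channel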
Conditions: BODIPY lipid droplet fluorescence, 18-24 h; for cell number change: measured here: cell count max response, cells fed with added oleic acid
How it was run: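 Drosophila S3 cells got compounds at several concentrations plus oleic acid (400 uM solution). Laser-scanning cytometry with 488 nm excitation read lipid droplets at 500-530 nm and cells at 575-640 nm. Percent activity was relative to 20 uM Triacsin C.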

[1] = measured here: cell number channel AC50, cells fed with added oleic acid
[2] = measured here: lipid fluorescence (Fed channel) AC50, cells fed with added oleic acid

Row | SMILES | cell number change [%] | AC50 [1] | AC50 [2]
1 | COC(=O)c1cscc1S(=O)(=O)Cc1ccccc1 | 14.2 | – | –
2 | CC(NC(=O)CNC(=O)[C@@H]1Cc2ccccc2CN1)c1ccccc1 (some centres undefined) | 14.1 | – | –
3 | CN(CC(=O)Nc1ccc(F)cc1)C(=O)c1cc(-c2cccs2)nn1-c1ccccc1 | 58.2 | 16.4 µM [rising, single point] | 0.0058 µM [rising, full curve, poor fit]
4 | CC(C(=O)N1CCN(c2ccc([N+](=O)[O-])cc2)CC1)N1C(=O)C2CC=CCC2C1=O (centres undefined) | 7.5 | – | 0.1 µM [rising, full curve, poor fit]
5 | Cc1c(NC(=O)c2csc3c2CCCC3)c(=O)n(-c2ccccc2)n1C | 17 | – | 6.51 µM [rising, single point]
6 | O=C(NCc1ccccc1Cl)c1ccc(S(=O)(=O)NCc2ccco2)cc1 | – | 7.31 µM [rising, single point] | –
7 | Cc1ccc(NC(=O)C2CCCN(S(=O)(=O)c3cccnc3)C2)c(C)c1 (centres undefined) | 20.2 | – | 0.651 µM [rising, full curve, poor fit]
8 | COCCN(Cc1cc2cc3c(cc2nc1Cl)OCO3)C(=O)Nc1ccc(F)cc1 | – | – | 1.84 µM [rising, partial curve]
9 | CNC(=O)c1ccc(-c2ccccc2)s1 | 12.4 | – | 29.1 µM [rising, single point]
10 | CCOC(=O)c1ccc(NC(=O)CSc2ccc(-c3cccnc3)nn2)cc1 | -29.6 | – | 18.4 µM [falling, single point]
11 | CCCCSc1nnc(-c2ccc(C)cc2)c2ccccc12 | -55.1 | 23.1 µM [falling, single point] | –
12 | O=C(OCC#CCSc1nnc(-c2cccc3ccccc23)s1)c1cccs1 | 53.6 | 29.1 µM [rising, single point] | 25.9 µM [rising, partial curve]
13 | CC(C)NS(=O)(=O)c1ccc(OCC(=O)N2CCN(c3ccccc3)CC2)cc1 | -1.49 | – | 0.461 µM [falling, partial curve, poor fit]
14 | CC(C)NC(=O)c1sc2nc3c(c(-c4cccs4)c2c1N)CN(C)CC3 | – | 1.84 µM [rising, partial curve, poor fit] | 6.51 µM [rising, partial curve]
15 | COCCn1c(C)cc(C(=O)COC(=O)c2c(C)nn(Cc3ccccc3)c2C)c1C | -14.1 | – | 29.1 µM [rising, single point]
16 | CCc1ccc2nc(NC(=O)c3ccc4c(=O)[nH]c(CN5CCOCC5)nc4c3)sc2c1 | 9.03 | 0.651 µM [rising, full curve, poor fit] | –
17 | COc1ccc2c(C=Nc3c(C)n(C)n(-c4ccccc4)c3=O)c(O)n(Cc3ccco3)c(=O)c2c1 | -18.7 | – | –
18 | C[C@H](NC(=O)c1[nH]cnc1C(=O)Nc1cccc(Cl)c1)c1ccccc1 | -31.1 | 8.2 µM [falling, single point] | 18.4 µM [falling, single point]
19 | Nc1n[nH]c(N)c1N=Nc1ccc(Cl)cc1 | -11.4 | – | 16.4 µM [falling, single point]
20 | CCCNC(=O)Cn1c(=O)/c(=C\c2ccc(-c3ccc([N+](=O)[O-])cc3)o2)s/c1=C\C(=O)C(C)(C)C | -89.7 | 5.17 µM [falling, full curve] | 0.291 µM [falling, full curve]

Among those listed so far, these contain a nitro group on carbon.
Row | SMILES | cell number change [%] | AC50 [1] | AC50 [2]
4 | CC(C(=O)N1CCN(c2ccc([N+](=O)[O-])cc2)CC1)N1C(=O)C2CC=CCC2C1=O (centres undefined) | 7.5 | – | 0.1 µM [rising, full curve, poor fit]
20 | CCCNC(=O)Cn1c(=O)/c(=C\c2ccc(-c3ccc([N+](=O)[O-])cc3)o2)s/c1=C\C(=O)C(C)(C)C | -89.7 | 5.17 µM [falling, full curve] | 0.291 µM [falling, full curve]

Further records follow:

Row | SMILES | cell number change [%] | AC50 [1] | AC50 [2]
21 | Cc1cc(NC(=O)COC(=O)c2cc(S(=O)(=O)N3CCOCC3)ccc2N2CCCCC2)no1 | 4.96 | – | 8.2 µM [rising, partial curve]
22 | Cc1ccc(NC(=O)c2cc(N3C(=O)C=CC3=O)ccc2N2CCOCC2)cc1 | -64 | 1.84 µM [falling, full curve] | 3.66 µM [falling, full curve, poor fit]
23 | O=C(NC1CC1)C1CCCN(C(=O)Nc2ccc(F)cc2)C1 (centres undefined) | -12 | 0.58 µM [rising, partial curve, poor fit] | –
24 | O=S(=O)(NCCC1=CCCCC1)c1cccc(S(=O)(=O)N2CCOCC2)c1 | – | – | 29.1 µM [falling, single point]
25 | COc1ccc(N(C(=O)c2snc(C(N)=O)c2N)C(C(=O)NC2CCCC2)c2ccc(OC)c(OC)c2)cc1 (centres undefined) | 22.4 | – | –
26 | O=c1[nH][nH]cc1C=Nc1ccc(Cl)cc1Cl | -43.6 | 29.1 µM [falling, single point] | 29.1 µM [falling, single point]
27 | O=C(Cn1c(=O)n(-c2cccc(Cl)c2)c(=O)n1CC(=O)N1CCCCC1)N1CCCCC1 | -187 | 23.1 µM [falling, partial curve] | –
28 | COC(=O)c1nn(-c2ccc3c(c2)OCO3)cc1O | -8.39 | – | –
29 | COc1cccc(NC(=O)CN2C(=O)NC3(CCCc4ccccc43)C2=O)c1 (centres undefined) | -4.01 | – | 6.51 µM [rising, single point]
30 | Cc1ccc2nc(NC(=S)NC(=O)c3cccs3)sc2c1 | -14.2 | – | –
31 | CCOC(=O)c1cc(-c2ccc(C)o2)nn1CCC#N | 16.6 | – | 18.4 µM [rising, single point]
32 | CCOP(=O)(OCC)c1nc(-c2cccc3ccccc23)oc1NCc1ccc(OC)cc1 | -37.6 | – | 0.00461 µM [falling, full curve, poor fit]
33 | O=S(=O)(NN=C1CCCCCC1)c1ccccc1 | 14.7 | – | 0.0116 µM [falling, full curve, poor fit]
34 | CCOc1cc(NC(=S)NCCCN2CCOCC2)c(OCC)cc1NC(=O)c1cccc(F)c1 | 22.9 | – | 23.1 µM [rising, single point]
35 | Cc1ccc(C(=O)Nc2cccc(N(C)S(C)(=O)=O)c2)cc1S(=O)(=O)Nc1ccccc1 | 111 | – | –
36 | COc1ccc(CN(CC(=O)NC(C)C)C(=O)CCC(=O)Nc2nccs2)cc1 | -5.13 | – | –
37 | Cc1ccccc1NC(=S)c1ccc2ccccc2n1 | -9.85 | – | –
38 | CCOC(=O)c1c(C)[nH]c(C)c1C(=O)COC(=O)/C=C/c1ccc(Cl)cc1 | 11.6 | – | 0.92 µM [rising, full curve, poor fit]
39 | C=CCOc1nc(N(C)C)nc(N(C)C)n1 | 33.1 | 29.1 µM [rising, single point] | 5.17 µM [rising, single point]
40 | CCC(C)N1CC(C(=O)O)CC1=O (centres undefined) | -34.6 | 16.4 µM [falling, single point] | 29.1 µM [falling, single point]

Row | SMILES | cell number change [%] | AC50 [1] | AC50 [2]
41 | Cc1cc(-n2c(C)cc(C(=O)CSc3nc(N)cc(=O)[nH]3)c2C)no1 | -68.4 | 20.6 µM [falling, single point] | 20.6 µM [falling, partial curve]
42 | O=C(COC(=O)COc1ccccc1)NC12CC3CC(CC(C3)C1)C2 | -32.9 | 0.103 µM [falling, full curve, poor fit] | –
43 | NNC(=O)C(=O)NCCCN1CCOCC1 | -50.2 | 25.9 µM [falling, single point] | 0.116 µM [falling, full curve, poor fit]
44 | CCOC(=O)c1c(C)[nH]c(C(=O)OCC(=O)Nc2ccc(OC)c(Cl)c2)c1C | 28.7 | – | 3.66 µM [rising, partial curve]
45 | C=CCn1c(N)cc(=O)nc1SC(CC)C(=O)Nc1ccc(C(C)=O)cc1 (centres undefined) | 32.1 | 29.1 µM [rising, single point] | –
46 | CN(C)C(=O)N1CCC(C(=O)NCc2ccccc2Cl)CC1 | – | 6.51 µM [falling, single point] | –
47 | c1ccc(CNCc2ccco2)cc1 | -3.87 | – | 29.1 µM [rising, single point]
48 | N#Cc1cnn(-c2nc(SCc3ccccc3)nc3sc4c(c23)CCCC4)c1N | -25.6 | – | –
49 | COc1ccccc1N1C(=O)c2ccccc2NC1c1cc(OC)c(OC)c(OC)c1 (centres undefined) | 6.35 | – | –
50 | Nc1ccc(Sc2nnnn2-c2ccccc2)c(Cl)c1 | -4.92 | – | 3.66 µM [rising, full curve]
51 | O=C(CCn1cnc2ccccc21)N/N=C/C=C/c1ccccc1 | 11.5 | – | 2.06 µM [rising, partial curve, poor fit]
52 | Cc1ccc(C(=O)NCC(=O)OCC(=O)NC(C)C2CC3CCC2C3)cc1 (centres undefined) | 119 | – | 2.91 µM [rising, single point]
53 | COC(=O)c1ccc(NC(=O)CN(c2ccc(C)cc2)S(=O)(=O)c2c(C)nn(C)c2C)cc1 | 2.26 | – | 0.58 µM [rising, single point]
54 | CCOc1ccc(CN2CCNC(=O)C2CC(=O)NCc2csc(C(C)C)n2)cc1 (centres undefined) | -13 | – | 29.1 µM [falling, single point]
55 | O=C(c1ccccc1S(=O)(=O)NCC(O)COc1ccc([N+](=O)[O-])cc1)N1CCCCC1 (centres undefined) | -32 | 32.6 µM [falling, single point] | –
56 | N=C1/C(=C\c2ccc(Br)o2)C(=O)N=C2SC(CC(=O)N3CCCCC3)=NN12 | -3.63 | – | 0.13 µM [falling, partial curve, poor fit]
57 | CCc1nnc(NS(=O)(=O)c2ccc(NC(=O)c3ccc(Br)cc3)cc2)s1 | 9.68 | – | 29.1 µM [rising, single point]
58 | CC(C)[C@H](Nc1ncnc2c1oc1ccccc12)C(=O)O | -2.67 | – | –
59 | O=C(CN1CCOCC1)NCc1ccc(F)cc1 | 16.1 | – | 11.6 µM [rising, partial curve, poor fit]
60 | Cc1cc(C)n(-c2ccc(NC(=O)C3CCCCN3C(=O)c3cccs3)cc2)n1 (centres undefined) | 0.647 | – | 0.0366 µM [falling, full curve, poor fit]
